Data: publication PMC8440562, “MAD2L2 dimerization and TRIP13 control shieldin activity in DNA repair” (Nature Communications, 2021)

Columns and labels:
[1] = target: GST-tagged MAD2L2 in complex with full-length SHLD3; test: pull-down; purified proteins mixed at 6 uM in 25 mM Tris pH 8, 0.3 M NaCl, 10% glycerol, 10 mM MgCl2, 0.5 mM TCEP, 0.01% Triton-X, 3 mM ATP; glutathione agarose or amylose beads; MAD2L2 in complex with full-length SHLD3; Coomassie SDS-PAGE; both purified
[2] = target: GST-tagged MAD2L2 in complex with full-length SHLD3; test: SEC; Superdex-200 in buffer C (25 mM Tris pH 8, 0.3 M NaCl, 10% glycerol, 0.5 mM TCEP, 10 mM MgCl2) + 0.1 mM ATP; proteins incubated 2 h on ice with 2 mM ATP before the run; equimolar in Fig. 3f; both purified
[3] = target: MAD2L2-SHLD3-SHLD2^1-95 complex (human); test: as above

| Binder | binding [1] | binding [2] | binding [3] |
| --- | --- | --- | --- |
| His6-EGFP-TRIP13^E253Q (enzyme, human, UniProt Q15645 1-432, looked up, TRIP13, human, with E253Q; printed mass of GFP-TRIP13 75.5 kDa; source: insect cells (Hi5, baculovirus, biGBac), purified) MDEAVGDLKQALPCVAESPTVHVEVHQRGSSTAKKEDINLSVRKLLNRHNIVFGDYTWTEFDEPFLTRNVQSVSIIDTELKVKDSQPIDLSACTVALHIFQLNEDGPSSENLEEETENIIAANHWVLPAAEFHGLWDSLVYDVEVKSHLLDYVMTTLLFSDKNVNSNLITWNRVVLLHGPPGTGKTSLCKALAQKLTIRLSSRYRYGQLIEINSHSLFSKWFSESGKLVTKMFQKIQDLIDDKDALVFVLIDQVESLTAARNACRAGTEPSDAIRVVNAVLTQIDQIKRHSNVVILTTSNITEKIDVAFVDRADIKQYIGPPSAAAIFKIYLSCLEELMKCQIIYPRQQLLTLRELEMIGFIENNVSKLSLLLNDISRKSEGLSGRVLRKLPFLAHALYVQAPTVTIEGFLQALSLAVDKQFEERKKLAAYI | binds | binds |  |
| TRIP13^E253Q (48.5 kDa form, Fig. 3f) (enzyme, human, UniProt Q15645 1-432, looked up, TRIP13, human, with E253Q; printed mass 48.5 kDa (291 kDa for hexamer); The printed mass fits TRIP13 without the EGFP fusion; source: insect cells (Hi5, baculovirus, biGBac), purified) MDEAVGDLKQALPCVAESPTVHVEVHQRGSSTAKKEDINLSVRKLLNRHNIVFGDYTWTEFDEPFLTRNVQSVSIIDTELKVKDSQPIDLSACTVALHIFQLNEDGPSSENLEEETENIIAANHWVLPAAEFHGLWDSLVYDVEVKSHLLDYVMTTLLFSDKNVNSNLITWNRVVLLHGPPGTGKTSLCKALAQKLTIRLSSRYRYGQLIEINSHSLFSKWFSESGKLVTKMFQKIQDLIDDKDALVFVLIDQVESLTAARNACRAGTEPSDAIRVVNAVLTQIDQIKRHSNVVILTTSNITEKIDVAFVDRADIKQYIGPPSAAAIFKIYLSCLEELMKCQIIYPRQQLLTLRELEMIGFIENNVSKLSLLLNDISRKSEGLSGRVLRKLPFLAHALYVQAPTVTIEGFLQALSLAVDKQFEERKKLAAYI |  |  | binds |

No constants are given. Whether binding was seen depends on the method and setting. Binding can be weak; no strength is given. For part of these data: Sequences can lack the tags named with a protein.
